Publication PMC8889267
Results are given in words; binding and its absence hold for the method and conditions named. Binding seen in cells or lysates may run through a third protein. Here binding means that the protein was enriched with, or labelled near, the bait; the list need not be complete. A no says only that the protein was not detected with the bait.

Sequences of proteins named here, by UniProt entry; tags and fusion partners are left off. Residues count along the entry.
UniProt Q9FIH8, residues 144-1265: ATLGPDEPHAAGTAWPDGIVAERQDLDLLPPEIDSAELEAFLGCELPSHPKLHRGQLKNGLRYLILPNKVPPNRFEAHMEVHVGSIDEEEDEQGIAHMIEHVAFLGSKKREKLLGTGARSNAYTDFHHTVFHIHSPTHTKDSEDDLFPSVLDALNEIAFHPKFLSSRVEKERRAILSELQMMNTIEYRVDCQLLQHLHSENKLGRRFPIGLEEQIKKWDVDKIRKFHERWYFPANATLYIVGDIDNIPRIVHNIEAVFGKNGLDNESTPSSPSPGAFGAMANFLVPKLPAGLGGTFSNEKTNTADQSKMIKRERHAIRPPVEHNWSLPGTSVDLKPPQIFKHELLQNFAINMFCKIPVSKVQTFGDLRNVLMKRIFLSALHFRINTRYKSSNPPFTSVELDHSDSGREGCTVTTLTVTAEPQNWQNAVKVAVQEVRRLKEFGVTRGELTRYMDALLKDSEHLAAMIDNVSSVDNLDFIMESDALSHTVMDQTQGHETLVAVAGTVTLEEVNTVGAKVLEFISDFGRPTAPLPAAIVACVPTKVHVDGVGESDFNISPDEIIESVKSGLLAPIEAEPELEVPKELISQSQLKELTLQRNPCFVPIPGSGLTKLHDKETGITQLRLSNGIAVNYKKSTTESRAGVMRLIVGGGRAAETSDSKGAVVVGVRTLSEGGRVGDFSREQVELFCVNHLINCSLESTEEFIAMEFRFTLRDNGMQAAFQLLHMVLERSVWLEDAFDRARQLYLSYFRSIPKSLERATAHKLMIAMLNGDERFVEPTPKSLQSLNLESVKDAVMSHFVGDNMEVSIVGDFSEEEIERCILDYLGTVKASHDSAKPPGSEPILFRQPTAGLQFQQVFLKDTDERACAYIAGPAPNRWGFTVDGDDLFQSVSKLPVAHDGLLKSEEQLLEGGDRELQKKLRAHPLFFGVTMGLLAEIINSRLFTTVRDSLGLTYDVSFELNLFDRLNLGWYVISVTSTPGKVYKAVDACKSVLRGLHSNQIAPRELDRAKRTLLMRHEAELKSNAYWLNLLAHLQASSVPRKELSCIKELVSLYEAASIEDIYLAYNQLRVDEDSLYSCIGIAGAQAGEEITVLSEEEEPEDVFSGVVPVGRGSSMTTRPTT

T1: CLPC1-TRAP-STREPII (Arabidopsis thaliana) (UniProt Q9FI56)
T1 sequence: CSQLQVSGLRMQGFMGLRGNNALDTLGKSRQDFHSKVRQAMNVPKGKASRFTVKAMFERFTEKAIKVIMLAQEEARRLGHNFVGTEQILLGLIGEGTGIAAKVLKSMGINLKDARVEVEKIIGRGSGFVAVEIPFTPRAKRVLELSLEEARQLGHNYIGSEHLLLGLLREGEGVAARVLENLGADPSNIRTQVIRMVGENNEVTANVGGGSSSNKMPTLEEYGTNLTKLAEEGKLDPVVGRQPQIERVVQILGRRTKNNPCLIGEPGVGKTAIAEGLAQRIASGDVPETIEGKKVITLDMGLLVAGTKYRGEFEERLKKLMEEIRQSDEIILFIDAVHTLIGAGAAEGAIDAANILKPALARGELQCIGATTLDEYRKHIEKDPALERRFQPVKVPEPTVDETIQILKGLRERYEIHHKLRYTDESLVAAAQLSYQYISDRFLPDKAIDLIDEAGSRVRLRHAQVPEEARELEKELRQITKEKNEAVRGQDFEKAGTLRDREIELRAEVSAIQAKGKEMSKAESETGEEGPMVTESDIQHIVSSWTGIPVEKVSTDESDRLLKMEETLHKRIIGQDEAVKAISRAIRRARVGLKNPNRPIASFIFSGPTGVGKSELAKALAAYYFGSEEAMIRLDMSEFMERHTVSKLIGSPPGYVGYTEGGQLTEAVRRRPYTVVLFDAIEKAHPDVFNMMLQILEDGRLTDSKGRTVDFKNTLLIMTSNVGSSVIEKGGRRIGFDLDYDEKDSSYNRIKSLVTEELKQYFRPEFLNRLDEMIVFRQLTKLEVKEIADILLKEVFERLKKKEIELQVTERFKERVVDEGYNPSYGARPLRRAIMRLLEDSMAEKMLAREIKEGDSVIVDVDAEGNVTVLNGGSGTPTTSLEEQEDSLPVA

B1: rpoB RNA polymerase (PEP) beta (protein, UniProt P50546 1-1072)
chain: MLGDEKEGTSAIPGFNQIQFEGFYRFIDQGLIEELAKFPKIEDIDHEIEFQLFVETYQLVEPLIKERDAVYESLTYSSELYVSAGLIWKTSRNMQEQRIFIGNIPLMNSLGTSIVNGIYRIVINQILQSPGIYYQSELDHNGISVYTGTIISDWGGRLELEIDKKARIWARVSRKQKISILVLSSAMGLNLREILENVCYPEIFLSFLTDKEKKKIGSKENAILEFYQQFSCVGGDPIFSESLCKELQKKFFHQRCELGRIGRRNINWRLNLNIPQNNIFLLPRDVLAAADHLIGMKFGMGTLDDMNHLKNKRIRSVADLLQDQLGLALARLENVVKGTISGAIRHKLIPTPQNLVTSTPLTTTYESFFGLHPLSQVLDRTNPLTQIVHGRKLSYLGPGGLTGRTANFRIRDIHPSHYGRICPIDTSEGINVGLIGSLSIHARIGDWGSLESPFYELFEKSKKARIRMLFLSPSQDEYYMIAAGNSLALNRGIQEEQAVPARYRQEFLTIAWEEVHLRSIFPFQYFSIGASLIPFIEHNDANRALMSSNMQRQAVPLSRSEKCIVGTGLERQVALDSGVPAIAEHEGKILYTDTEKIVFSGNGDTLSIPLIMYQRSNKNTCMHQKPQVRRGKCIKKGQILADGAATVGGELALGKNILVAYMPWEGYNFEDAVLISECLVYGDIYTSFHIRKYEIQTHVTTQGPERITKEIPHLEGRLLRNLDKNGIVMLGSWVETGDILVGKLTPQVAKESSYAPEDRLLRAILGIQVSTSKETCLKLPIGGRGRVIDVRWVQKKGGSSYNPEIIRVYISQKREIKVGDKVAGRHGNKGIISKILPRQDMPYLQDGRPVDMVFNPLGVPSRMNVGQIFECSLGLAGSLLDRHYRIAPFDERYEQEASRKLVFSELYEASKQTANPWVFEPEYPGKSRIFDGRTGDPFEQPVIIGKPYILKLIHQVDDKIHGRSSGHYALVTQQPLRGRSKQGGQRVGEMEVWALEGFGVAHILQEMLTYKSDHIRARQEVLGTTIIGGTIPKPEDAPESFRLLVRELRSLALELNHFLVSEKNFQINRKEV
B2: DEAD/DEAH box helicase (AT3G02060.1) (protein, UniProt F4JFJ3 54-823)
chain: ATAAKPTRWREKPELAESDSISLLNERIRRDLGKRETARPAMDSEEAEKYIHMVKEQQERGLQKLKGIRQGTKAAGDGAFSYKVDPYSLLSGDYVVHKKVGIGRFVGIKFDVPKDSSEPLEYVFIEYADGMAKLPLKQASRLLYRYNLPNETKRPRTLSRLSDTSVWERRKTKGKVAIQKMVVDLMELYLHRLRQKRYPYPKNPIMADFAAQFPYNATPDQKQAFLDVEKDLTERETPMDRLICGDVGFGKTEVALRAIFCVVSTGKQAMVLAPTIVLAKQHYDVISERFSLYPHIKVGLLSRFQTKAEKEEYLEMIKTGHLNIIVGTHSLLGSRVVYSNLGLLVVDEEQRFGVKQKEKIASFKTSVDVLTLSATPIPRTLYLALTGFRDASLISTPPPERIPIKTHLSSFRKEKVIEAIKNELDRGGQVFYVLPRIKGLEEVMDFLEEAFPDIDIAMAHGKQYSKQLEETMERFAQGKIKILICTNIVESGLDIQNANTIIIQDVQQFGLAQLYQLRGRVGRADKEAHAYLFYPDKSLLSDQALERLSALEECRELGQGFQLAEKDMGIRGFGTIFGEQQTGDVGNVGIDLFFEMLFESLSKVEELRIFSVPYDLVKIDININPRLPSEYVNYLENPMEIIHEAEKAAEKDMWSLMQFTENLRRQYGKEPYSMEIILKKLYVRRMAADLGVNRIYASGKMVVMKTNMSKKVFKLITDSMTCDVYRSSLIYEGDQIMAELLLELPREQLLNWMFQCLSELHASLPALIKY
B3: pentatricopeptide (PPR) repeat (pTAC2) (protein, UniProt Q9S7Q2 67-862)
chain: VEKGKYSYDVESLINKLSSLPPRGSIARCLDIFKNKLSLNDFALVFKEFAGRGDWQRSLRLFKYMQRQIWCKPNEHIYTIMISLLGREGLLDKCLEVFDEMPSQGVSRSVFSYTALINAYGRNGRYETSLELLDRMKNEKISPSILTYNTVINACARGGLDWEGLLGLFAEMRHEGIQPDIVTYNTLLSACAIRGLGDEAEMVFRTMNDGGIVPDLTTYSHLVETFGKLRRLEKVCDLLGEMASGGSLPDITSYNVLLEAYAKSGSIKEAMGVFHQMQAAGCTPNANTYSVLLNLFGQSGRYDDVRQLFLEMKSSNTDPDAATYNILIEVFGEGGYFKEVVTLFHDMVEENIEPDMETYEGIIFACGKGGLHEDARKILQYMTANDIVPSSKAYTGVIEAFGQAALYEEALVAFNTMHEVGSNPSIETFHSLLYSFARGGLVKESEAILSRLVDSGIPRNRDTFNAQIEAYKQGGKFEEAVKTYVDMEKSRCDPDERTLEAVLSVYSFARLVDECREQFEEMKASDILPSIMCYCMMLAVYGKTERWDDVNELLEEMLSNRVSNIHQVIGQMIKGDYDDDSNWQIVEYVLDKLNSEGCGLGIRFYNALLDALWWLGQKERAARVLNEATKRGLFPELFRKNKLVWSVDVHRMSEGGMYTALSVWLNDINDMLLKGDLPQLAVVVSVRGQLEKSSAARESPIAKAAFSFLQDHVSSSFSFTGWNGGRIMCQRSQLKQLLSTKEPTSEESENKNLVALANSPIFAAGTRASTSSDTNHSGNPTQRRTRTKKELAGSTA
B4: DNA primase-helicase (dual chloro-mito) (protein, UniProt B5X582 82-709)
chain: SSYNSIPRVPTPVDTEVEADKRVVLSRLVTLRRKLAEQGVDAENCPPGQHSGLICPTCEGGNSGEKSLSLFIAPDGSSATWNCFRGKCGLKGGVRADGGLASADPIEKVERKITVEGIELEPLCDEIQDYFAARAISRKTLERNRVMQKRIGDEIVIAFTYWQRGELVSCKYRSLTKMFFQERKTRRILYGLDDIEKTSEVIIVEGEIDKLAMEEAGFLNCVSVPDGAPAKVSSKEIPSEDKDTKYKFLWNCNDYLKKASRIVIATDGDGPGQAMAEEIARRLGKERCWRVKWPKKSEDEHFKDANEVLMSKGPHLLKEAILDAEPYPILGLFSFKDFFDEIDAYYDRTHGHEYGVSTGWKNLDNLYSVVPGELTVVTGIPNSGKSEWIDAMLCNLNHSVGWKFALCSMENKVRDHARKLLEKHIKKPFFDADYGRSVQRMSVEEKDEGKKWLNDTFYPIRCEMDSLPSIDWVLERAKAAVLRYGIRGLVIDPYNELDHQRTPRQTETEYVSQMLTKIKRFSQHHSCHVWFVAHPKQLQHWDGGAPNLYDISGSAHFINKCDNGIIVHRNRDENAGPLDLVQIGVRKVRNKVAGQIGDAYLCYDRTTGSYSDSPVTPGMPERRSPKRY

Target: T1, CLPC1-TRAP-STREPII (Arabidopsis thaliana)
Test: affinity purification with mass spectrometry; STREPII-tagged CLPC1-WT or CLPC1-TRAP from soluble leaf proteome of transgenic Arabidopsis rosettes, nondenaturing; StrepTactinXT beads, 50 mM Hepes-KOH pH 8.0, 15% glycerol, 10 mM MgCl2, 75 mM NaCl, eluted with 2.5 mM biotin; SDS-PAGE, in-gel trypsin digest, LC-MS/MS, spectral counting; three biological replicates; CGEP-STREP eluates as negative control

For DUF179–3, which binding is on record?
The binding was “binds”.

DUF760–4 was tested. Which binding did it give?
The binding was “binds”.

How did the binding turn out when “DNA-directed topoisomerase—dually targeted mitochondria & plastid” was run?
The binding was “binds”.

With LON-domain protein 2 (LON-like2) as the molecule, how does the binding read?
The binding was “binds”.

For “PYRP2-related Haloacid dehalogenase (HAD) hydrolase”, which binding is on record?
The binding was “binds”.

How did the binding turn out when DUF760–1 was run?
Its binding is “binds weakly”.

How did the binding turn out when “stromal processing peptidase (SPP) (from UniProt Q9FIH8 144-1265)” was run?
Its binding is “binds”.

HugZ-3 was tested. Which binding did it give?
The binding was “binds”.

DUF3143 was tested. Which binding did it give?
Its binding is “binds weakly”.

For “tRNA/rRNA methyltransferase (AT2G39670.1)”, which binding is on record?
Its binding is “binds”.

How did the binding turn out when UVR1 was run?
The binding was “no binding”.

For DUF179-1, which binding is on record?
The binding was “binds”.

HugZ-1 was tested. Which binding did it give?
Its binding is “binds”.

LON-like1 was tested. Which binding did it give?
The binding was “binds”.

DUF179-2 was tested. Which binding did it give?
The binding was “no binding”.

Which binding does the source give for DUF760-7 (clade 2) here?
Its binding is “binds”.

Which binding does the source give for DUF760–2 here?
Its binding is “binds”.

How did the binding turn out when Executer 1 (EXE1) was run?
The binding was “binds”.

For DUF760-5 (clade 3), which binding is on record?
The binding was “binds”.

How did the binding turn out when LON-like3 was run?
Its binding is “binds”.

With Executer 2 (EXE2) as the molecule, how does the binding read?
The binding was “binds”.

Which binding does the source give for SAP domain–containing protein (pTAC3) here?
Its binding is “binds”.

For DUF760-3 (clade 2), which binding is on record?
The binding was “binds”.

How did the binding turn out when “pigment defective 327 (PDE327) - oxidoreductase” was run?
Its binding is “binds”.

armadillo repeat protein (ARM) was tested. Which binding did it give?
Its binding is “binds”.

For B1, which binding is on record?
Its binding is “binds”.

B2 was tested. Which binding did it give?
The binding was “binds”.

B3 was tested. Which binding did it give?
Its binding is “binds”.

With B4 as the molecule, how does the binding read?
The binding was “binds”.
